At least one read-out could not be matched to a standard name with certainty.
Assay: Chemical stability in acidic aqueous media (degradation kinetics, HPLC recovery rate)
Format: physicochemical
Settings: compounds of this invention, acetonitrile/0.1 M aqueous HCl (2:3), pH ca. 1.2, 37° C.

Structure (SMILES) | Recovery rate after 2 h [%]
O=C(O)C[C@@H]1COc2cc(O[C@@H]3CCc4c3ccc(C(F)(F)F)c4CN3CCOCC3)ccc21 [Example 1, {(S)-6-[(R)-4-Morpholin-4-ylmethyl-5-trifluoromethyl-indan-1-yloxy]-2,3-dihydro-benzofuran-3-yl}-acetic acid] | >99
Cc1nc2c(s1)CN(Cc1c(C(F)(F)F)ccc3c1CC[C@H]3Oc1ccc3c(c1)OC[C@H]3CC(=O)O)CC2 [Example 6, {(S)-6-[(R)-4-(2-Methyl-4,5,6,7-tetrahydro-thiazolo[5,4-c]pyridin-5-ylmethyl)-5-trifluoromethyl-indan-1-yloxy]-2,3-dihydro-benzofuran-3-yl}-acetic acid] | >99
